# Where a sequence shows no end group, the ends are not given.
# Assay: general procedure: Fmoc solid-phase peptide synthesis; Rink amide resin (β-catenin peptides); CEM ProTide Rink amide resin (NEMO peptides); HATU (β-catenin peptides); diisopropylcarbodiimide/Oxyma pure (NEMO peptides)
# Settings: whole synthesis, UPLC 214 nm, scale of the general procedure 25 μmol (NEMO peptides), side-chain lactam ring, sequence written open
sequence,measurement,value
YPEDILDKHLQRV,final HPLC purity,97.9%

# — paper PMC10882002 (Nature Communications, 2024)
